This test has as its target T1, GST-PDCD4 recombinant protein (human, UniProt Q53EL6 1-469).
T1 construct: PDCD4 (programmed cell death 4), human, amplified from cDNA of HEK293T cells and cloned into pGEX-6P-1; pGEX-6P-1 is known to add GST at the N-terminus; also called GST-tagged PDCD4; source: E. coli BL21 (DE3), purified (Glutathione Sepharose 4FF)
T1 sequence (looked up): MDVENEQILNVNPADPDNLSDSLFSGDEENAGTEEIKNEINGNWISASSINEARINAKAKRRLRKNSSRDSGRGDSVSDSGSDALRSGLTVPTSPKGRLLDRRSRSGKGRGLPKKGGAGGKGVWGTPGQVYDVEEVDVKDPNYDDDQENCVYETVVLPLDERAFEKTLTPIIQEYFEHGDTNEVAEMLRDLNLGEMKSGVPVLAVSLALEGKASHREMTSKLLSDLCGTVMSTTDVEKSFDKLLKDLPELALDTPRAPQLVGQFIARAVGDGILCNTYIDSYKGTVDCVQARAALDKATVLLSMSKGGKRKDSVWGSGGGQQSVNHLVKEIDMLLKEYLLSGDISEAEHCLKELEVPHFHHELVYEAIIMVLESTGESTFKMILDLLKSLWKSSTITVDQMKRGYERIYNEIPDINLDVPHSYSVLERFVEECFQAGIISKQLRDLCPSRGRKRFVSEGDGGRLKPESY
In words: affinity purification with mass spectrometry; GST-PDCD4 (and GST) immobilised on glutathione Sepharose beads, incubated with cell lysate; SDS-PAGE, mass spectrometry; only the target purified.

By UniProt entry, the sequences of proteins in these tests, tags left out.
UniProt P06748: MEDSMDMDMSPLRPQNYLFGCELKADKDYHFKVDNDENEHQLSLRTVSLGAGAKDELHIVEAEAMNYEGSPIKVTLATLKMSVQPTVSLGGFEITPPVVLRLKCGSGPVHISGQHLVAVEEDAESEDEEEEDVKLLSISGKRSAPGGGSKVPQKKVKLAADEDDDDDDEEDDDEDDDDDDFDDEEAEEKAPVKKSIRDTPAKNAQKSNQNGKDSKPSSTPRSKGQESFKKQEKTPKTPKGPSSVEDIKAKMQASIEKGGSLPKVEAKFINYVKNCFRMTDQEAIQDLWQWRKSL
UniProt Q09028: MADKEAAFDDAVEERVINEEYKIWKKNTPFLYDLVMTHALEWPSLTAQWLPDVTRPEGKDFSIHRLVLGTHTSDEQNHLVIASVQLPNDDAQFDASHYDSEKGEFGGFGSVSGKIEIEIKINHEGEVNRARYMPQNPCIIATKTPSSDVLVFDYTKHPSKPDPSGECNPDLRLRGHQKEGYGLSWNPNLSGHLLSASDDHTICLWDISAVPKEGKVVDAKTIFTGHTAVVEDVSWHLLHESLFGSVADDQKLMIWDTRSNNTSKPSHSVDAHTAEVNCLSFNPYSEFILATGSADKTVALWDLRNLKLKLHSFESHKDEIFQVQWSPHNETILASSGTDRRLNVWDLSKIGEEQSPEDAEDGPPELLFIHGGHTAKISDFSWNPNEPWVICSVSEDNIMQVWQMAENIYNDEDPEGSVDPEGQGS

These are yes or no findings as the source states them, for the method shown. In cells and extracts the contact can be indirect. These calls come from enrichment with a bait or labelling near it, and not all partners need be listed. Where a sequence is shown, tags or fusion partners need not be part of it.

For the substance “NPM1 (Nucleophosmin 1), endogenous (from UniProt P06748 1-294)”, the binding result is “binds”. The value for “RBBP4, endogenous (from UniProt Q09028 1-425)” was “binds”.
